These results are taken from publication PMC5967302.

This experiment concerns the target T1, CDC50A-FLAG (mouse) (UniProt Q8VEK0).
T1 sequence: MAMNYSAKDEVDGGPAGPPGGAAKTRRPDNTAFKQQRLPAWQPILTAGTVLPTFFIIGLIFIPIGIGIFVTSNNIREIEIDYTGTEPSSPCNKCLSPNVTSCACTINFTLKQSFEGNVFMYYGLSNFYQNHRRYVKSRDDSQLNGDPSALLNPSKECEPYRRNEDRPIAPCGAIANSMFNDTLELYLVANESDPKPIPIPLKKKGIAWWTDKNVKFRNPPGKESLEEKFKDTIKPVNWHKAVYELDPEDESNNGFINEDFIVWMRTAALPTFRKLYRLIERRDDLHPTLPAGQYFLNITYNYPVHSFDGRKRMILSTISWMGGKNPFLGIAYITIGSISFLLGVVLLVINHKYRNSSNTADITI
Put plainly: co-IP; HEK293 cells co-transfected with pEGFP-P4-ATPases and pCDC50A-FLAG; lysis in 150 mM NaCl, 50 mM Tris pH 7.4, 1% Triton X-100; anti-FLAG M2 affinity gel 30 min on ice; washed with 0.1% Triton X-100/TBS; eluted with FLAG peptide; immunoblot.

These are yes or no findings as the source states them, for the method shown. Binding seen in cells or lysates may run through a third protein. Some entries that bind do so weakly or less than the wild type. Sequences can lack the tags named with a protein.

B1: EGFP-ATP11B (protein, UniProt Q6DFW5 1-1175)
chain: MWRWVRQQLGFDPPHQSDTRTIYIANRFPQNGLYTPQKFIDNRIISSKYTIWNFVPKNLFEQFRRVANFYFLIIFLVQLMIDTPTSPITSGLPLFFVITVTAIKQGYEDWLRHNSDNEVNGAPVYVVRSGGLVKTRSKNIRVGDIVRIAKDEIFPADLVLLSSDRLDGSCHVTTASLDGETNLKTHVSVPETAVLQTVANLDSLIAVIECQQPEADLYRFMGRMIITQQMEEIVRPLGPESLLLRGARLKNTKEIFGVAVYTGMETKMALNYKSKSQKRSAVEKSMNTFLIIYLIILISEAIISTILKYTWQAEEKWDEPWYNQKTEHQRNSSKILRFISDFLAFLVLYNFIIPISLYVTVEMQKFLGSFFIGWDLDLYHEESDQKAQVNTSDLNEELGQVEYVFTDKTGTLTENEMQFRECSINGLKYQEINGKLVPEGPSPDSTEGEVPFLGSLSHLSNSAHLTATSLRTSPESETELIKEHDLFFKAVSLCHTVQISNVQTDGIGDGPWQPNLAPAQLEYYASSPDEKALVEAAARAGIIFVGISEETMEVKVLGRLERYKLLHILEFDSDRRRMSVIVQAPSGEKLLFAKGAESSILPKCIGGEIAKTRIHVDEFALKGLRTLCIAYRQFTAKEYEDVDRRLFEARTALQHREEKLADAFQYIEKDLILLGATAVEDRLQDKVRETIEALRMAGIKVWVLTGDKHETAVSVSLSCGHFHRTMNILELINQKSDSGCAEQLRQLARRITEDHVIQHGLVVDGTSLSLALREHEKLFMEVCRNCSAVLCCRMAPLQKAKVIRLIKISPEKPITLAVGDGANDVSMIQEAHVGIGIMGKEGRQAARNSDYAIARFKFLSKLLFVHGHFYYIRIATLVQYFFYKNVCFITPQFLYQFYCLFSQQTLYDSVYLTLYNICFTSLPVLIYSLVEQHIDPHVLQSKPTLYRDISKNGLLSIKAFLYWTVLGFSHAFIFFFGSYFLVGKDTSLLGNGQMFGNWTFGTLVFTVMVITVTVKMALETHFWTWINHLVTWGSIIFYFIFSLFYGGILWPFLGSQNMYFVFIQLLSSGSAWFAILLMVVTCLFIDVVKKVFDRQLHPTSTEKAQLAEAHSSVKCLDSVCCFPGETPCASVGRMLERVIGRCSPNHISRLWNASDPFYTNDRSILTLSPMDSSTC
For the molecule B1, the binding result is “binds”.

B2: EGFP-ATP11C (protein, UniProt Q9QZW0 1-1129)
chain: MFRRTLNRLCAGEEKRVGTRTVFVGNHPISGTEPYIAQRFCDNRIVSSKYTLWNFLPKNLFEQFRRIANFYFLIIFLVQVTVDTPTSPVTSGLPLFFVITVTAIKQGYEDWLRHRADNEVNKSAVYIIENAKRVRKESEKIKVGDVVEVQANETFPCDLILLSSCTTDGTCYVTTASLDGESNCKTHYAVRDTIALCTAESIDNLRATIECEQPQPDLYRFVGRISIYSNSIEAVARSLGPENLLLKGATLKNTKKIYGVAVYTGMETKMALNYQGKSQKCSAVEKSINAFLIVYLFILLTKAAVCTTLKYVWQSSPYNDEPWYNQKTQKERETFQVLKMFTDFLSFMVLFNFIIPVSMYVTVEMQKFLGSFFISWDKDFFDEEINEGALVNTSDLNEELGQVDYVFTDKTGTLTENSMEFIECCIDGHKYKGTTQEVDGLSQTDGPLAYFDKADKNREALFLRALCLCHTVEMKTNDDVDGPVEGAGFTYISSSPDEIALVKGAKRFGFTFLGNQNGYIRVENQRKEIEEYELLHTLNFDSVRRRMSVIVRTQKGDILLFCKGADSSIFPRVHSHQIELTKDHVERNAMDGYRTLCVAFKEIPPDDFERINAQLVEAKMALQDREEKLEKVFDEIETNMNLIGATAVEDKLQDQAAETIEALHAAGLKVWVLTGDKMETAKSTCYACRLFQTNTELLELTTKTIEESERKEDRLHELLIEYRKKLLHEFPKSTRSLKKAWTEHQEYGLIIDGSTLSLILNSSQDCSSNNYKSIFLQICMKCTAVLCCRMAPLQKAQIVRMVKNLKGSPITLSIGDGANDVSMILESHVGIGIKGKEGRQAARNSDYSVPKFKHLKKLLLVHGHLYYVRIAHLVQYFFYKNLCFILPQFLYQFFCGFSQQPLYDAAYLTMYNICFTSLPILAYSLLEQHINIDTLTADPRLYMKITGNAMLQLGPFLHWTFLAAFEGTVFFFGTYFLFQTSSLEDNGKIYGNWTFGTIVFTVLVFTVTLKLALDTRFWTWINHFVIWGSLAFYVFFSFFWGGIIWPFLKQQRMYFVFAQMLCSVSTWLAIILLIFISLFPEILLIVVKNVRRRSARRNLSCRRASDSLSARPSVRPLLLRTFSDESNIL
B2: the binding entry is listed as “binds”.
